Measured values from PMC9769623.
These are yes or no findings as the source states them, for the method shown. Binding seen in cells or lysates may run through a third protein. Binding calls can cover weak binding; strength is not graded here. Where a sequence is shown, tags or fusion partners need not be part of it.

Legend:
[1] = target: T1, Sln1-Myc (C. albicans) (UniProt Q5A872); experiment: co-IP; C. albicans cell lysates on HA or Myc antibody beads, 4°C, ≥1 h; five washes in lysis buffer (50 mM Tris-HCl pH 7.4, 150 mM KCl, 1% NP-40); Western blot with αMyc or αHA
T1 sequence: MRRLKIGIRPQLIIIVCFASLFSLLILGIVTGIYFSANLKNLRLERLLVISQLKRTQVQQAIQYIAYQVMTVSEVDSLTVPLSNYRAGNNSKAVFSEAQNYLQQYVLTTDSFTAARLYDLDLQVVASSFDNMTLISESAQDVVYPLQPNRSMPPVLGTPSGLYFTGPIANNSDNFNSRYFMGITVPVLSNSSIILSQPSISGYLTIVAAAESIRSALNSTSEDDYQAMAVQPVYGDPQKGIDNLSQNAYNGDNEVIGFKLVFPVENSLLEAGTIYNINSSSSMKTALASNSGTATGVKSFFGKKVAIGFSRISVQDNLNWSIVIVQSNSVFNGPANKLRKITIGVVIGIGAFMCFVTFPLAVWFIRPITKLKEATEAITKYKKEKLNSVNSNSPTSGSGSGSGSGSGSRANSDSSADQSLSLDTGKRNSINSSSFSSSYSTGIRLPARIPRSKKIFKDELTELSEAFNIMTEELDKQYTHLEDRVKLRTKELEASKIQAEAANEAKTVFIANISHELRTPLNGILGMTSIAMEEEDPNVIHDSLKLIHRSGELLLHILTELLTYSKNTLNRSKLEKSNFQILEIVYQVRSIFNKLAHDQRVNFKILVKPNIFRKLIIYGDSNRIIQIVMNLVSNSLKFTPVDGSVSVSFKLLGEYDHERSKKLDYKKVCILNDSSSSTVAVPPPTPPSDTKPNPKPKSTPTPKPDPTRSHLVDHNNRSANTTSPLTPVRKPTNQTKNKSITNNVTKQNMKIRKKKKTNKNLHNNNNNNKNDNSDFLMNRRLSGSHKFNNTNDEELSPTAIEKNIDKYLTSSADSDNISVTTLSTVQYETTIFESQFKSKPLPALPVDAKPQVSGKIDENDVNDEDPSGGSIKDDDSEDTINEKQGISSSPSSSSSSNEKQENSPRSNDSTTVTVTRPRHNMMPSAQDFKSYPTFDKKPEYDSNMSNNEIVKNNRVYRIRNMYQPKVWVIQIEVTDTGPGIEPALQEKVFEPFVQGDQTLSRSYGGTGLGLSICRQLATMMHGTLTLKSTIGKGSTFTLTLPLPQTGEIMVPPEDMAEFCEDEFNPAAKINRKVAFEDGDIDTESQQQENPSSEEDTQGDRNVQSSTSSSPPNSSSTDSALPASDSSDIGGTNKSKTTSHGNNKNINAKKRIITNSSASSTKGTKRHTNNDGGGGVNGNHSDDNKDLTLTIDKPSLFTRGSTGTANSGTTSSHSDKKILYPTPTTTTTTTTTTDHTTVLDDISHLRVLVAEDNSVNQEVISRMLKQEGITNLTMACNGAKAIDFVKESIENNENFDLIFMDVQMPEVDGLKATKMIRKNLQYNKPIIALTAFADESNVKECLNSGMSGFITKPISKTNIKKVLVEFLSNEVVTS

[2] = target: T2, Mp65-HA (C. albicans) (UniProt Q59XX2); experiment: as above
T2 sequence: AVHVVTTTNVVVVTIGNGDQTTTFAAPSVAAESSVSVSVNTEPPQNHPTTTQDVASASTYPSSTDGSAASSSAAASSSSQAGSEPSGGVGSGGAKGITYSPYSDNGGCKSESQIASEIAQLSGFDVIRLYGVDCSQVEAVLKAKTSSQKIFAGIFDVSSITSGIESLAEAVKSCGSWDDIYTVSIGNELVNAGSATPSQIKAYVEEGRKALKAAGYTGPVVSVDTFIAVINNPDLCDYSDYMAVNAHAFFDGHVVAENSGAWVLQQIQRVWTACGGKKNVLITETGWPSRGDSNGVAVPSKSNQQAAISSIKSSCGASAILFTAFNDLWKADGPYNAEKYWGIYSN

Row | Substance | binding [1] | binding [2]
1 | HA-Cyr1 (C. albicans) (enzyme) | binds | –
2 | Myc-Cyr1 (C. albicans) (enzyme) | – | binds
